Measured values as given in PMC6736871.
These are yes or no findings as the source states them, for the method shown. Some results given as binding are weak or reduced against the parent protein; the word gives no strength.

Biological target: Thermus thermophilus RuvC (Thermus thermophilus) (UniProt Q5SJC4)
Experiment: crystal structure; Tt-RuvC (7 mg/ml) mixed with Holliday junction DNA at a 1.8:1 molar ratio, 5 mM EDTA; sitting drop vapor diffusion at 25 °C, 0.4 M ammonium phosphate; controlled dehydration, data at room temperature; 3.4 Å; both purified

binding: binds
B1: Thermus thermophilus RuvC (enzyme, UniProt Q5SJC4 1-166)
chain: MVVAGIDPGITHLGLGVVAVEGKGALKARLLHGEVVKTSPQEPAKERVGRIHARVLEVLHRFRPEAVAVEEQFFYRQNELAYKVGWALGAVLVAAFEAGVPVYAYGPMQVKQALAGHGHAAKEEVALMVRGILGLKEAPRPSHLADALAIALTHAFYARMGTAKPL
